Laboratory results reported in paper PMC3327698, “Binding Properties and Stability of the Ras-Association Domain of Rap1-GTP Interacting Adapter Molecule (RIAM)” (PLoS ONE, 2012).
Results are given in words; binding and its absence hold for the method and conditions named. Some results given as binding are weak or reduced against the parent protein; the word gives no strength.

Key:
[1] = molecular target: GST-RIAM1-176 (N-terminal fragment of Rap1-GTP interacting adapter molecule) (human) (UniProt Q7Z5R6); assay: pull-down; quantitative: GST-RIAM on Glutathione Sepharose 4B; Rap1B-GDP at 0.05, 0.1, 0.3, 0.5, 0.7 and 1.0 µM; Buffer A; anti-Rap1 Western blot, densitometry; both purified
[2] = molecular target: GST-RIAM1-176 (N-terminal fragment of Rap1-GTP interacting adapter molecule) (human) (UniProt Q7Z5R6); assay: pull-down; quantitative: GST-RIAM on Glutathione Sepharose 4B; Rap1B-Gpp(NH)p at 0.05, 0.1, 0.3, 0.5, 0.7 and 1.0 µM; Buffer A; anti-Rap1 Western blot, densitometry, nonlinear regression (GraphPad Prism); both purified
[3] = molecular target: GST-RIAM150-261 (RA domain) (human) (UniProt Q7Z5R6); assay: condition: only Rap1B loaded with GDP (0.05-1.0 µM); pull-down; quantitative: GST-RIAM on Glutathione Sepharose 4B; Rap1B-GDP at 0.05, 0.1, 0.3, 0.5, 0.7 and 1.0 µM; Buffer A; anti-Rap1 Western blot, densitometry; both purified
[4] = molecular target: T1, GST-RIAM150-502 (RA and PH domains) (human, UniProt Q7Z5R6 150-502); assay: pull-down; GST-RIAM constructs on Glutathione Sepharose 4B; soluble 1 µM purified Rap1B-Gpp(NH)p, 1 h; Buffer A (50 mM Tris pH 7.5, 200 mM NaCl, 2 mM MgCl2, 10% glycerol, 1 mM DTT, 1% Triton X-100); anti-Rap1B Western blot; both purified
T1 construct: Modified pGEX-4T3 vector with a TEV protease site; also called RA-PH domain pair; source: E. coli BL21 GOLD, purified (Glutathione Sepharose, SEC); not shown: GST, N-terminal, kept
T1 sequence (looked up): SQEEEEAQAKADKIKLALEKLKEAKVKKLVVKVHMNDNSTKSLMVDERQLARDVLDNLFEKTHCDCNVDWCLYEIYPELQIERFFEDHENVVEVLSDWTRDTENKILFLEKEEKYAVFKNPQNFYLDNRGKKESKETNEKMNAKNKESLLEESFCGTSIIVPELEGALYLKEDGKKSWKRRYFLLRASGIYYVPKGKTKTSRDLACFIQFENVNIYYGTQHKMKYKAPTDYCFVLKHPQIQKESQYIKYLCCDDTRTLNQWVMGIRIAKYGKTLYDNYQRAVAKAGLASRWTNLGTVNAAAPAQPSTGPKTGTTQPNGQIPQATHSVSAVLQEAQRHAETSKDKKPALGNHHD

[5] = molecular target: GST-RIAM1-176 (N-terminal fragment of Rap1-GTP interacting adapter molecule) (human) (UniProt Q7Z5R6); assay: as above
[6] = molecular target: GST-RIAM1-261 (N-terminus to the end of the RA domain) (human) (UniProt Q7Z5R6); assay: as above
[7] = molecular target: GST-RIAM1-502 (N-terminus, RA and PH domains) (human) (UniProt Q7Z5R6); assay: as above
[8] = molecular target: GST-RIAM150-261 (RA domain) (human) (UniProt Q7Z5R6); assay: as above

binding [1]: binds
binding [2]: binds
binding [3]: no binding
binding [4]: binds
binding [5]: binds
binding [6]: binds
binding [7]: binds
binding [8]: binds
B1: Rap1B (amino acids 1-167) (domain or fragment, UniProt P61224 1-167, looked up)
chain: MREYKLVVLGSGGVGKSALTVQFVQGIFVEKYDPTIEDSYRKQVEVDAQQCMLEILDTAGTEQFTAMRDLYMKNGQGFALVYSITAQSTFNDLQDLREQILRVKDTDDVPMILVGNKCDLEDERVVGKEQGQNLARQWNNCAFLESSAKSKINVNEIFYDLVRQINR
notes: small GTPase Rap1B, amino acids 1-167 (C-terminus excluded); loaded with Gpp(NH)p or GDP before the assay; One molecule for both nucleotide states; Construct pGEX-4T3/Rap1B came from A. Wittinghofer; also called Rap1B-Gpp(NH)p; Rap1B-GTP; source: E. coli BL21 GOLD, purified (Glutathione Sepharose, nucleotide exchange, SEC)
